Assay results as given in the supplement of paper PMC12889115.
This is one part of the list. Values are raw readings; no control value is given beside them.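 Primary screen: polymyxin B was added at a level permeabilizing Salmonella outer membranes while sparing inner membranes. DMSO wells, both with and without polymyxin B, established maximum growth. Plate-to-plate variation meant each plate was ranked on its own, and the lowest-OD600 compounds were selected as hits.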

Tested on: Salmonella enterica serovar Typhimurium SL1344
Assay: bacterial growth OD600 after 18 h with compound and polymyxin B; higher = more bacterial growth (less inhibition)
Conditions: 50 µM, Mueller-Hinton broth

Structure (SMILES): COc1ccccc1CCN1CCC(CN(C)C(=O)Cc2cccc(F)c2)CC1
- bacterial growth OD600 (polymyxin B 1 µg/mL): 0.882

Structure (SMILES): COc1cccc(CC2=NOC(C(=O)N3CCC(Oc4ccccc4OC)CC3)C2)c1 (stereo not given)
- bacterial growth OD600 (polymyxin B 0.75 µg/mL): 0.748

Structure (SMILES): COc1ccc(O)c(CN2CCCC(c3nc(-c4ccncc4)ncc3-c3ccccc3)C2)c1 (stereo not given)
- bacterial growth OD600 (polymyxin B 0.75 µg/mL): 0.815

Structure (SMILES): CC1(C2CCN(C(=O)Cc3ccc4c(c3)OCO4)CC2)NC(=O)N(C2Cc3ccccc3C2)C1=O (stereo not given)
- bacterial growth OD600 (polymyxin B 0.75 µg/mL): 0.98

Structure (SMILES): CC(CNC1CCN(c2ccc(C(=O)NCc3ccc4c(c3)OCO4)cc2)CC1)c1ccccc1 (stereo not given)
- bacterial growth OD600 (polymyxin B 0.75 µg/mL): 0.749

Structure (SMILES): O=C(c1ccccc1OC1CCN(Cc2ccccn2)CC1)N1CCCC1
- bacterial growth OD600 (polymyxin B 0.75 µg/mL): 0.82

Structure (SMILES): O=C(Nc1ccc(-c2nc3ccccc3o2)cc1)C1CCCN1C(=O)CC1CC1 (stereo not given)
- bacterial growth OD600 (polymyxin B 0.75 µg/mL): 0.87

Structure (SMILES): CCC1CN(CCNC(=O)C2CC(=O)N(C(C)C)C2)Cc2cc(OC)ccc2O1 (stereo not given)
- bacterial growth OD600 (polymyxin B 0.75 µg/mL): 0.824

Structure (SMILES): COCc1ccc(CN2CCCC(C(=O)Nc3cccc(-n4cccn4)c3)C2)o1 (stereo not given)
- bacterial growth OD600 (polymyxin B 1 µg/mL): 1.24

Structure (SMILES): Cc1ccccc1C1(CC(=O)N2CCCC2c2nccs2)CC(=O)N(Cc2ccccc2)C1=O (stereo not given)
- bacterial growth OD600 (polymyxin B 0.75 µg/mL): 0.004

Structure (SMILES): CCOC(=O)C1(Cc2ccc(F)cc2)CCCN(C(=O)c2ccc(N(C)C)cc2)C1 (stereo not given)
- bacterial growth OD600 (polymyxin B 1 µg/mL): 0.572

Structure (SMILES): COC(=O)C(CCSC)NC(=O)c1ccc2oc(C(C)C)nc2c1 (stereo not given)
- bacterial growth OD600 (polymyxin B 1 µg/mL): 1.15

Structure (SMILES): CC(C)CCC(=O)N1CCCC1C(=O)Nc1ccccc1Oc1cccnc1 (stereo not given)
- bacterial growth OD600 (polymyxin B 1 µg/mL): 0.912

Structure (SMILES): COCc1noc(-c2ccc(N(C)Cc3ncccc3C)nc2)n1
- bacterial growth OD600 (polymyxin B 1 µg/mL): 0.997

Structure (SMILES): CSCCNC(=O)C1CC(Cc2cccc(Cl)c2)=NO1 (stereo not given)
- bacterial growth OD600 (polymyxin B 0.75 µg/mL): 0.796

Structure (SMILES): CSc1nccc(N2C[C@H]3OC(=O)N(Cc4ccccn4)[C@H]3C2)n1
- bacterial growth OD600 (polymyxin B 0.75 µg/mL): 0.838

Structure (SMILES): COC(=O)CCC(=O)N1CCCC(CCc2cccc(OC)c2)C1 (stereo not given)
- bacterial growth OD600 (polymyxin B 0.75 µg/mL): 0.777

Structure (SMILES): CCN1CCN(c2ccc(C(=O)NCCC3CCCCN3C)cn2)CC1 (stereo not given)
- bacterial growth OD600 (polymyxin B 1 µg/mL): 0.884

Structure (SMILES): O=C(C1CCOCC1)N1CCC(C2CCN(Cc3cccc(F)c3F)CC2)C1 (stereo not given)
- bacterial growth OD600 (polymyxin B 0.75 µg/mL): 0.945

Structure (SMILES): O=C(NC1CCCN(Cc2ccc(Cl)cc2)C1)c1cnc(CN2CCCC2)s1 (stereo not given)
- bacterial growth OD600 (polymyxin B 1 µg/mL): 1.28
